This assay relates to CD2F1 mice, L1210 leukemia ip, survival T/C. The assay is described as follows: NCI In Vivo Anticancer Drug Screen. Data for tumor model L1210 Leukemia (intraperitoneal) in CD2F1 (CDF1) mice. As to conditions: higher T/C = longer survival. In outline: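 Read-out first: treated-group measurement over vehicle-control measurement, expressed as a ratio. Animals bore a transplanted tumor line and were dosed with compound or vehicle.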

The mark [1] stands for this setting: T/C endpoint: mean survival time, dose: 6.25 mg/kg/injection, schedule: Q01DX009 (ip), vehicle: saline with Tween-80.
[2] abbreviates: T/C endpoint: mean survival time, dose: 12.5 mg/kg/injection, schedule: Q01DX009 (ip), vehicle: saline with Tween-80.
The mark [3] stands for this setting: T/C endpoint: mean survival time, dose: 25.0 mg/kg/injection, schedule: Q01DX009 (ip), vehicle: saline with Tween-80.
Setting [4] is: T/C endpoint: mean survival time, dose: 400.0 mg/kg/injection, schedule: Q01DX001 (ip), vehicle: saline with Tween-80.
[5] abbreviates: T/C endpoint: mean survival time, dose: 100.0 mg/kg/injection, schedule: Q01DX001 (ip), vehicle: saline with Tween-80.
[6] abbreviates: T/C endpoint: mean survival time, dose: 200.0 mg/kg/injection, schedule: Q04DX003 (ip), vehicle: saline with Tween-80.
Where [7] appears, read: T/C endpoint: mean survival time, dose: 400.0 mg/kg/injection, schedule: Q04DX003 (ip), vehicle: saline with Tween-80.

Consider 21 compounds from PubChem BioAssay AID256 (DTP/NCI, 2004).

The list shows only some results of the screen, not a fair sample: it is rich in T/C values a quarter to a half above the control, in often repeated tests (any T/C) and in doses without a T/C. Further doses and runs are listed elsewhere. T/C is the treated group as % of the vehicle group. Some entries give survivors of the animals treated and no T/C: the source holds a T/C of zero for them, seemingly a mark for toxic or unscored doses. Some doses without a T/C left all or most animals alive at the check, yet need not have been tolerated: survival well below the control is almost never listed, so the zero probably covers shortened survival too. Counts of survivors are from the toxicity check (mostly the fifth day) where no day follows; animals may have died later. Schedules are NCI's codes, taken here to give the interval after Q, in days (D) or hours (H), and the number of doses after X. Some entries were tested several times; the results are listed from low to high. For survival time, this PubChem deposit counts one and a half times the control or more as active, and values a quarter to a half above the control carry no call in these data; other NCI protocols may use other cut-offs. Some T/C values are followed by the survivors on the day toxicity was checked, most often the fifth; without a count, all were alive then.

On to `CCCCCCCCCCCCN1C(C)=CS/C1=C\C=C\c1scc(C)[n+]1CCCCCCCCCCCC`, for which the T/C was 125 % of control (T/C endpoint: mean survival time, dose: 1.56 mg/kg/injection, schedule: Q01DX009 (ip), vehicle: saline with Tween-80) and 141 % of control (T/C endpoint: mean survival time, dose: 3.12 mg/kg/injection, schedule: Q01DX009 (ip), vehicle: saline with Tween-80). For the same compound, the survivor count is, setting by setting: under setting [1], 5 of 6; under setting [2], 5 of 6; under setting [3], 0 of 6.
On to `NC(=O)Nc1cc(NC(N)=O)cc(N(CCCl)CCCl)c1`, for which the T/C was 128 % of control (T/C endpoint: mean survival time, dose: 20.0 mg/kg/injection, schedule: Q01DX009 (ip), vehicle: Klucel (hydroxypropylcellulose) (HPC)) and 130 % of control (T/C endpoint: mean survival time, dose: 40.0 mg/kg/injection, schedule: Q01DX009 (ip), vehicle: Klucel (hydroxypropylcellulose) (HPC)). Under “T/C endpoint: mean survival time, dose: 80.0 mg/kg/injection, schedule: Q01DX009 (ip), vehicle: Klucel (hydroxypropylcellulose) (HPC)”, the survivor count is reported as 0 of 6.
In the case of `CC1CC(C)(C)N=C(C(Cc2ccccc2)Cc2ccccc2)O1` (stereo not given), under setting [4], the survivor count was 2 of 6.
`Nc1nc(-c2ccc([N+](=O)[O-])cc2)c([N+](=O)[O-])c(=O)[nH]1`: the survivor count is, setting by setting: (T/C endpoint: mean survival time, dose: 25.0 mg/kg/injection, schedule: Q01DX001 (ip), vehicle: saline with Tween-80) 3 of 6; (T/C endpoint: mean survival time, dose: 50.0 mg/kg/injection, schedule: Q01DX001 (ip), vehicle: saline with Tween-80) 3 of 6; under setting [5], 3 of 6; (T/C endpoint: mean survival time, dose: 200.0 mg/kg/injection, schedule: Q01DX001 (ip), vehicle: saline with Tween-80) 2 of 6; under setting [4], 3 of 6.
As for `O=P1(N(CCCl)CCCl)OCCC(OO)N1CCCl` (stereo not given), where the note is “T/C endpoint: mean survival time, dose: 50.0 mg/kg/injection, schedule: Q01DX001 (ip), vehicle: Klucel (hydroxypropylcellulose) (HPC)”, the T/C was 147 % of control. For the setting “T/C endpoint: mean survival time, dose: 200.0 mg/kg/injection, schedule: Q01DX001 (ip), vehicle: DMSO”, the survivor count was 0 of 2.
As for `C1CCC(NC2CCCCC2)CC1`, the survivor count under setting [5] is given as 0 of 6.
On to `CCC1=C[C@H]2CN(CCc3c([nH]c4ccccc34)[C@@](C(=O)OC)(c3cc4c(cc3OC)N(C)[C@H]3[C@@](O)(C(=O)OC)[C@H](OC(C)=O)[C@]5(CC)C=CCN6CC[C@]43[C@@H]65)C2)C1`, for which the T/C (T/C endpoint: mean survival time, dose: 0.5 mg/kg/injection, schedule: Q01DX009 (ip), vehicle: water) is 127 % of control; the T/C (T/C endpoint: mean survival time, dose: 1.0 mg/kg/injection, schedule: Q01DX009 (ip), vehicle: water) was 143 % of control; the T/C (T/C endpoint: median survival time, dose: 1.0 mg/kg/injection, schedule: Q01DX009 (ip), vehicle: water) is 130 % of control; the T/C (T/C endpoint: median survival time, dose: 2.0 mg/kg/injection, schedule: Q01DX009 (ip), vehicle: water) was 140 % of control. The survivor count (T/C endpoint: mean survival time, dose: 8.0 mg/kg/injection, schedule: Q01DX009 (ip), vehicle: water) is reported as 0 of 6; the survivor count (T/C endpoint: median survival time, dose: 4.0 mg/kg/injection, schedule: Q01DX009 (ip), vehicle: water) is recorded as 10 of 10; the survivor count (T/C endpoint: median survival time, dose: 8.0 mg/kg/injection, schedule: Q01DX009 (ip), vehicle: water) is reported as 2 of 5.
For the compound `CC(C)(CO)C(O)C(=O)NCCS(=O)(=O)c1ccc(F)cc1` (stereo not given), the survivor count (T/C endpoint: mean survival time, dose: 400.0 mg/kg/injection, schedule: Q01DX009 (ip), vehicle: saline with Tween-80) is 6 of 6.
As for `C/C=C/C[P+](c1ccccc1)(c1ccccc1)c1cccc2ccccc12`, the survivor count (T/C endpoint: mean survival time, dose: 100.0 mg/kg/injection, schedule: Q04DX002 (ip), vehicle: saline with Tween-80) is listed as 0 of 3; the survivor count (T/C endpoint: mean survival time, dose: 200.0 mg/kg/injection, schedule: Q04DX002 (ip), vehicle: saline with Tween-80) is listed as 0 of 3; the survivor count (T/C endpoint: mean survival time, dose: 400.0 mg/kg/injection, schedule: Q04DX002 (ip), vehicle: saline with Tween-80) is recorded as 0 of 3.
Regarding `O=S(=O)(Oc1ccccc1)c1c(F)c(F)c(F)c(F)c1F`, the survivor count runs as follows: under setting [6], 1 of 6; under setting [7], 0 of 6.
Consider `CCCCCC(C)NCCO` (stereo not given), for which the survivor count by setting is: (T/C endpoint: mean survival time, dose: 150.0 mg/kg/injection, schedule: Q01DX001 (ip), vehicle: saline) 2 of 6; (T/C endpoint: mean survival time, dose: 300.0 mg/kg/injection, schedule: Q01DX001 (ip), vehicle: saline) 0 of 6.
Take `N=c1c2ncn(C3CCCC3)c2ncn1Cc1ccc([N+](=O)[O-])cc1`: the survivor count (T/C endpoint: mean survival time, dose: 150.0 mg/kg/injection, schedule: Q01DX001 (ip), vehicle: other) was 1 of 6 and the survivor count (T/C endpoint: mean survival time, dose: 300.0 mg/kg/injection, schedule: Q01DX001 (ip), vehicle: other) is 0 of 6.
With `O=c1[nH]cnc2c1ccn2C1OC(CO)C(O)C1O` (stereo not given), the survivor count (T/C endpoint: mean survival time, dose: 25.0 mg/kg/injection, schedule: Q01DX009 (ip), vehicle: saline) is 3 of 6; the survivor count (T/C endpoint: mean survival time, dose: 100.0 mg/kg/injection, schedule: Q04DX003 (ip), vehicle: saline with Tween-80) was 0 of 6; the survivor count under setting [6] is 0 of 6; the survivor count under setting [7] is listed as 0 of 6. Further, the T/C (T/C endpoint: mean survival time, dose: 25.0 mg/kg/injection, schedule: Q04DX003 (ip), vehicle: saline sonified) is 126 % of control.
With `COC1=C2C[C@@H](C)C[C@@H](OC)[C@@H](O)[C@H](C)/C=C(\C)[C@@H](OC(N)=O)[C@H](OC)/C=C\C=C(/C)C(=O)NC(=CC1=O)C2=O`, the survivor count runs as follows: (T/C endpoint: mean survival time, dose: 20.0 mg/kg/injection, schedule: Q01DX001 (ip), vehicle: saline) 1 of 6; (T/C endpoint: mean survival time, dose: 40.0 mg/kg/injection, schedule: Q01DX001 (ip), vehicle: saline) 0 of 6; (T/C endpoint: mean survival time, dose: 80.0 mg/kg/injection, schedule: Q01DX001 (ip), vehicle: saline) 0 of 6.
Regarding `CCOC(=O)N1CCc2nc3ccccc3cc21`, the survivor count (T/C endpoint: mean survival time, dose: 400.0 mg/kg/injection, schedule: Q01DX001 (ip), vehicle: other) is on record as 3 of 6.
Regarding `Clc1ccc2scc3c4ccccc4nc-3c2c1`, the survivor count (T/C endpoint: mean survival time, dose: 100.0 mg/kg/injection, schedule: Q01DX009 (ip), vehicle: saline) is reported as 0 of 6.
`COc1cc(C=Nc2cc(Cl)c(O)c(Cl)c2)ccc1N(CCCl)CCCl`: under “T/C endpoint: mean survival time, dose: 50.0 mg/kg/injection, schedule: Q01DX001 (ip), vehicle: carboxymethylcellulose (CMC)”, the survivor count is reported as 1 of 4.
On to `Cc1cnc(/C=N\NC(N)=S)c2cccc(N)c12`, for which the T/C is, setting by setting: (T/C endpoint: mean survival time, dose: 6.25 mg/kg/injection, schedule: Q01DX009 (ip), vehicle: Klucel (hydroxypropylcellulose) (HPC)) 128 % of control; under setting [1], 137 % of control; (T/C endpoint: mean survival time, dose: 12.5 mg/kg/injection, schedule: Q01DX009 (ip), vehicle: Klucel (hydroxypropylcellulose) (HPC)) 144 % of control; under setting [2], 147 % of control; under setting [3], 127 % of control; (T/C endpoint: median survival time, dose: 10.8 mg/kg/injection, schedule: Q01DX005 (ip), vehicle: other) 134 % of control. Besides, the T/C reads like this: (T/C endpoint: median survival time, dose: 18.0 mg/kg/injection, schedule: Q01DX005 (ip), vehicle: other) 135 % of control; (T/C endpoint: median survival time, dose: 30.0 mg/kg/injection, schedule: Q01DX005 (ip), vehicle: other) 137 % of control. Also, the survivor count (T/C endpoint: mean survival time, dose: 50.0 mg/kg/injection, schedule: Q01DX009 (ip), vehicle: saline with Tween-80) is on record as 5 of 6.
Consider `COC(=O)NC1=C(N2CC2)C(=O)C(NC(=O)OC)=C(N2CC2)C1=O`, for which the T/C is, setting by setting: (T/C endpoint: mean survival time, dose: 0.37 mg/kg/injection, schedule: Q01DX009 (ip), vehicle: saline) 126 [9 of 10 alive] and 127 % of control; (T/C endpoint: mean survival time, dose: 0.75 mg/kg/injection, schedule: Q01DX009 (ip), vehicle: saline) 147 % of control. Moreover, the survivor count (T/C endpoint: mean survival time, dose: 6.0 mg/kg/injection, schedule: Q01DX009 (ip), vehicle: saline) was 8 of 10 and 9 of 10.
As to `COc1cc2c(cc1OC)-c1cc3cc(OC)c(OC)cc3c(C)[n+]1CC2` (tested in a mixture with another compound), the survivor count runs as follows: (T/C endpoint: mean survival time, dose: 200.0 mg/kg/injection, schedule: Q04DX003 (ip), vehicle: saline sonified) 0 of 6; (T/C endpoint: mean survival time, dose: 400.0 mg/kg/injection, schedule: Q04DX003 (ip), vehicle: saline sonified) 0 of 6.
Consider `OCCN1CCN(CC/C=C2/c3ccccc3Sc3ccc(Cl)cc32)CC1`, for which, for the setting “T/C endpoint: mean survival time, dose: 50.0 mg/kg/injection, schedule: Q01DX009 (ip), vehicle: saline”, the survivor count is 1 of 6.
